PubChem BioAssay AID1259254 | NCATS – 2017
The deposit covers about 59,000 reagents; this is a part drawn at random. About 1,550 of all reagents (2.6%) were called active. 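G2 share is only a proxy for re-replication; each gene was hit by three separate siRNAs, and active genes were retested.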 Reagents against one gene are numbered here. Further read-outs or replicates are left out here. No sequences are given here. The record does not give: the amount of reagent.

Test: 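Gene knock-downs that lead to re-replication, shown by excess G2 DNA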 (primary screen)
System: human HCT116 colorectal cancer cells
Knock-down reagent: single siRNA against human genes
Timing: 3 days
Detection: 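Nuclei stained with Hoechst and imaged; cell-cycle phase assigned by DNA content; G2 share scaled per plate, non-targeting siRNA 0%, GMNN siRNA 100%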
Scale: G2 robust z-score: higher = more G2 cells, more excess DNA replication
Hit rule: 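Active siRNAs have a G2 robust z of 5 or more median absolute deviations over the median, which in these data means about 38% or higher of GMNN control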

FBXW10 #1
- G2 robust z-score: -0.581
- outcome: inactive

FBXW10 #2
- G2 robust z-score: 0.629
- outcome: inactive

FBXW10 #3
- G2 robust z-score: 0.245
- outcome: inactive

MOS #1
- G2 robust z-score: -0.994
- outcome: inactive

MOS #2
- G2 robust z-score: 0.68
- outcome: inactive

MOS #3
- G2 robust z-score: -1.2
- outcome: inactive

TUBB2B #1
- G2 robust z-score: 0.269
- outcome: inactive

TUBB2B #2
- G2 robust z-score: 0.0998
- outcome: inactive

TUBB2B #3
- G2 robust z-score: -1.26
- outcome: inactive

GLRA3 #1
- G2 robust z-score: -0.0158
- outcome: inactive

GLRA3 #2
- G2 robust z-score: 1.13
- outcome: inactive

GLRA3 #3
- G2 robust z-score: 1.13
- outcome: inactive

Part of the list above, set out differently:
Target gene	reagent	G2 robust z-score	outcome
TUBB2B	3	-1.26	inactive
GLRA3	1	-0.0158	inactive
